This passage reports GI50 results from patent publication US20250115597A1, “TYK2 INHIBITORS AND COMPOSITIONS AND METHODS THEREOF” (LYNK PHARMACEUTICALS CO. LTD., priority 2021, published 2025).

Amino acid sequences for entries named in this document (tags omitted).
UniProt P29597, whole entry P760L: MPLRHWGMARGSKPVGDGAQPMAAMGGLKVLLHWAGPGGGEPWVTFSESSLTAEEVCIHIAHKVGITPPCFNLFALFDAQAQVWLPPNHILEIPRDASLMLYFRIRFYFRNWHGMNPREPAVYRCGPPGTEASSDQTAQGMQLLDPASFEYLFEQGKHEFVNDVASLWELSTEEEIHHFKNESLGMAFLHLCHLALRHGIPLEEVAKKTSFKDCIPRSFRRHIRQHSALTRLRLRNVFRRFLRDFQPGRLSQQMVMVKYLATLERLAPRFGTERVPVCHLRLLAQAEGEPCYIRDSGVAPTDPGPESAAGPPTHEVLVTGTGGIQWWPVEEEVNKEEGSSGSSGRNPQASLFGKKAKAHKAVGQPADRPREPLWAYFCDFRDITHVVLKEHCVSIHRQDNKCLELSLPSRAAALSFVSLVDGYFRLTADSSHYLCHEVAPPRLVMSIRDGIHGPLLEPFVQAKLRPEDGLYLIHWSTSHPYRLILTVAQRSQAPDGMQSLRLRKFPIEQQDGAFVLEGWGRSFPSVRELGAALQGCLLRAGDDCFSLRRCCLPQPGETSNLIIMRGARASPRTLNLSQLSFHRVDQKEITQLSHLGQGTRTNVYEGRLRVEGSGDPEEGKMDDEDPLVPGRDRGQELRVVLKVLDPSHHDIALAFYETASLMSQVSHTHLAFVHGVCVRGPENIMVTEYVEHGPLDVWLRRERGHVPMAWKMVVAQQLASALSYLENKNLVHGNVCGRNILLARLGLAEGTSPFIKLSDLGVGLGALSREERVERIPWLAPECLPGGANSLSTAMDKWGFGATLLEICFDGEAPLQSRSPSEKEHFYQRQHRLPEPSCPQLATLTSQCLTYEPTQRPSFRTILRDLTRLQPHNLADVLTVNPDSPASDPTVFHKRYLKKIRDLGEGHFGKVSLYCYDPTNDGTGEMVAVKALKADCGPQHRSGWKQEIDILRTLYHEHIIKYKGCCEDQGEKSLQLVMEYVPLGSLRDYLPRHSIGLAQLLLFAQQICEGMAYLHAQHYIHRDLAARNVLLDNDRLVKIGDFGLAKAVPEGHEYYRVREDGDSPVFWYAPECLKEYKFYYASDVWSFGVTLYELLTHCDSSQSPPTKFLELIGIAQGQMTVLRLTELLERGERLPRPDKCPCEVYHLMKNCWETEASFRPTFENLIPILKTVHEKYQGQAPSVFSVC

This assay has as its target Ba/F3-FL-TYK2-P760L cells (Homo sapiens, UniProt P29597, P760L, cells depend on it). Briefly: Anti-proliferative assay, Ba/F3-FL-TYK2-P760L cells (Cell-Titer Glo). The format is cell-based. Particulars: read-out: BaF3-FL-T2P760L IC50, 72 h.

The match of structure and compound is tentative.

As to `[2H]C([2H])([2H])NC(=O)c1cnc2cc1Nc1cc(cc(-c3ccn(C4CC4)n3)c1OC)COCc1nc(ccc1F)N2`, the GI50 was 0.138 µM. As to `[2H]C([2H])([2H])NC(=O)c1cnc(NC(=O)C2CC2)cc1Nc1cn(CCOC)c2ccn(C(C)C(F)(F)F)c(=O)c12` (single isomer, unassigned), the GI50 came to 0.764 µM.
